# Measured values reported in article PMC11052316, “New Transferrin Receptor-Targeted Peptide–Doxorubicin Conjugates: Synthesis and In Vitro Antitumor Activity” (Molecules, 2024).
# Legend:
# A549 cells = assay: In vitro cytotoxicity, CCK-8 assay; format: cell-based, human; conditions: A549, 48 h, CCK-8, mean ± SD (n = 3)
# Protocol: (§1) Human HepG2 hepatocellular carcinoma cells and human U87 glioblastoma cells were purchased from Procell Life Science & Technology Co., Ltd. (Wuhan, China), human A549 lung carcinoma cells were obtained from the School of Basic Medical Sciences, Chengde Medical University, human LO2 normal hepatic cells were purchased from Jennio Biotech Co., Ltd. (Guangzhou, China). The cells were cultured in DMEM (HepG2), MEM containing 1% non-essential amino acids (U87), and RPMI-1640 (A549 and LO2), supplemented with 10% fetal bovine serum (FBS) and 1% penicillin/streptomycin at 37 °C in a humidified atmosphere with 5% CO2.
# (§2) A549, HepG2, U87, and LO2 cells were each seeded in 96-well cell culture plates at a density of 6 × 10^3 cells per well and incubated at 37 °C for 24 h. Then, cells were treated with serial concentrations of free DOX or the peptide–DOX conjugates for 48 h. After incubation, CCK-8 (10 μL) was added to each well and incubated for an additional 2 h. The absorbance of each well was measured at 450 nm with a reference wavelength of 630 nm by using a Multiskan GO microplate reader (Thermo Fisher Scientific, Waltham, MA, USA). Data for each cell line treated with free DOX or PDCs were obtained from three independent experiments.
# HepG2 cells = assay: In vitro cytotoxicity, CCK-8 assay; format: cell-based, human; conditions: HepG2, 48 h, CCK-8, mean ± SD (n = 3)
# Protocol: as §1, §2
smiles,measurement,setting,value
"COc1cccc2c1C(=O)c1c(O)c3c(c(O)c1C2=O)C[C@@](O)(C(=O)CO)C[C@@H]3O[C@H]1C[C@H](N)[C@H](O)[C@H](C)O1 [DOX, Doxorubicin]",IC50,A549 cells,3550 ± 210 nM
same,IC50,HepG2 cells,1580 ± 190 nM
